Data as given in PubChem BioAssay AID720505 (Drosophila RNAi Screening Center, 2013).
Purpose: 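Fly regulators or components of the CRAC channel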 (primary screen). Cell system: Drosophila S2R+ cells. Knock-down reagent: long dsRNA against Drosophila genes. Conditions: thapsigargin (2 µM) in calcium-free buffer to empty internal stores, then 2 mM calcium added back. Measured: 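Stores emptied by 2 µM thapsigargin without calcium, then 2 mM calcium re-added; fluo-4 fluorescence followed by FLIPR in 384-well plates, per-well averaged endpoint, raw; two screen passes, some wells retested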. Reading the numbers: calcium signal and retest calcium signal: higher = more calcium entry after store depletion. Call rule: 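Knock-downs counted as hits when calcium entry dropped relative to STIM1 positive and Rho1 negative controls present on each plate; roughly 1500 genes called, with reductions of differing size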. Meaning of the calls: active = called as lowering calcium entry; inactive = not called.
In all, the deposit lists about 20,000 reagents; shown is a random part of those with a known target gene and a result. In the full data, about 2,100 (10%) are marked active. 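Raw plate signals without normalisation; calls rest on control-based scores that were not deposited; replicate 2 separates called from uncalled poorly.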 Reagents against one gene are numbered here. A plus sign joins genes that one reagent is predicted to hit. No sequences are given here. Not stated in the record: the amount of reagent, the time to read-out.

target,dsRNA no.,"calcium signal, replicate 1","calcium signal, replicate 2","retest calcium signal, replicate 1","retest calcium signal, replicate 2",call
CG13168,1,135,190,,,inactive
l(2)k05819 (lethal (2) k05819),1,140,319,,,inactive
Sid (Stress induced DNase),1,162,190,,,inactive
CG9231,1,114,105,,,inactive
CG1416,1,142,80.7,,,inactive
Imp (IGF-II mRNA-binding protein),1,205,145,,,inactive
Imp (IGF-II mRNA-binding protein),2,103,192,,,inactive
Nop56,1,132,164,,,inactive
side (sidestep),1,154,168,6127,162,inactive
side (sidestep),2,171,137,,,inactive
side (sidestep),3,172,167,,,inactive
side (sidestep),4,170,123,,,inactive
side (sidestep),5,155,122,,,inactive
Octbeta1R (Octopamine beta1 receptor),1,156,152,,,inactive
moon (moonshiner),1,135,97.2,,,inactive
endos (endosulfine),1,94.8,110,,,inactive
VhaAC39-2 (Vacuolar H[+] ATPase AC39 subunit 2),1,204,184,,,inactive
rod (rough deal),1,64.2,95.4,,,active
wek (weckle),1,99.1,85.5,,,inactive
Ir94g (Ionotropic receptor 94g),1,274,140,,,inactive
Obp18a (Odorant-binding protein 18a),1,167,84.3,,,inactive
CG42284,1,103,209,,,inactive
CG42284,2,97.8,217,,,inactive
CG13840,1,174,138,,,inactive
CG13840,2,143,160,,,inactive
Jon99Cii (Jonah 99Cii),1,179,151,,,inactive
Jon99Cii (Jonah 99Cii),2,107,172,,,inactive
MFS10 (Major Facilitator Superfamily Transporter 10),1,147,136,,,inactive
Npc2e (Niemann-Pick type C-2e),1,95.7,117,,,inactive
Npc2e (Niemann-Pick type C-2e),2,119,188,,,inactive
CheB53a (Chemosensory protein B 53a),1,156,138,,,inactive
bbg (big bang),1,88.7,162,,,inactive
bbg (big bang),2,63.6,182,,,inactive
Idh3b (Isocitrate dehydrogenase 3b),1,123,154,,,inactive
pths (porthos),1,152,90.2,,,inactive
CG15185,1,137,159,,,inactive
SrpRbeta (Signal recognition particle receptor beta),1,220,97.8,,,inactive
Prosbeta5R1 (Proteasome beta5 subunit-related 1),1,89.1,102,,,inactive
Kat60 (Katanin 60),1,110,87,,,inactive
ThrRS (Threonyl-tRNA synthetase),1,100,110,,,inactive
CG6403,1,152,171,,,inactive
CG17140 + CG17139,1,126,166,,,inactive
CG17140 + CG17139,2,135,163,,,inactive

Next part (10 carried over from the part before).
target,dsRNA no.,"calcium signal, replicate 1","calcium signal, replicate 2","retest calcium signal, replicate 1","retest calcium signal, replicate 2",call
Idh3b (Isocitrate dehydrogenase 3b),1,123,154,,,inactive
pths (porthos),1,152,90.2,,,inactive
CG15185,1,137,159,,,inactive
SrpRbeta (Signal recognition particle receptor beta),1,220,97.8,,,inactive
Prosbeta5R1 (Proteasome beta5 subunit-related 1),1,89.1,102,,,inactive
Kat60 (Katanin 60),1,110,87,,,inactive
ThrRS (Threonyl-tRNA synthetase),1,100,110,,,inactive
CG6403,1,152,171,,,inactive
CG17140 + CG17139,1,126,166,,,inactive
CG17140 + CG17139,2,135,163,,,inactive
CG13970,1,95.1,127,,,inactive
Usp20-33 (Ubiquitin specific protease 20/33),1,185,102,,,inactive
CG7728,1,76.4,87.9,,,inactive
dod (dodo),1,165,91.4,,,inactive
qtc (quick-to-court),1,114,211,,,inactive
qtc (quick-to-court),2,154,87.8,,,inactive
Ald1 (Aldolase 1),1,79.5,78.2,,,inactive
CG5597,1,93.6,98.6,,,inactive
CG9270,1,92.3,140,,,inactive
SPoCk (Secretory Pathway Calcium atpase),1,102,165,,,inactive
SPoCk (Secretory Pathway Calcium atpase),2,69,113,,,active
SPoCk (Secretory Pathway Calcium atpase),3,103,193,,,inactive
SPoCk (Secretory Pathway Calcium atpase),4,106,180,,,inactive
MESR6 (Misexpression suppressor of ras 6),1,134,89.6,,,inactive
CG10543,1,188,111,,,inactive
CG10543,2,147,186,,,inactive
CG9926,1,80,167,,,inactive
CG1074,1,158,82.2,94.1,94,inactive
TrxT (Thioredoxin T),1,122,228,,,inactive
TrxT (Thioredoxin T),2,100,130,,,inactive
ninaB (neither inactivation nor afterpotential B),1,133,176,,,inactive
Sk2 (Sphingosine kinase 2),1,101,116,,,inactive
CG33178,1,94.5,158,,,inactive
CG3430,1,115,216,,,inactive
Pkc53E (Protein C kinase 53E),1,159,111,,,inactive
Pkc53E (Protein C kinase 53E),2,124,93,,,inactive
CG34386,1,167,168,,,inactive
CG34386,2,186,205,,,inactive
CG34386,3,90.6,128,,,inactive
CG31710,1,149,106,5283,129,inactive
CG31710,2,104,114,,,inactive
ND-B16.6 (NADH dehydrogenase (ubiquinone) B16.6 subunit),1,147,85.5,,,inactive
ND-B16.6 (NADH dehydrogenase (ubiquinone) B16.6 subunit),2,99.2,178,,,inactive
CG8907,1,172,313,,,inactive
Hmgcl (3-Hydroxymethyl-3-methylglutaryl-CoA lyase),1,70.1,159,,,active
Dic61B (Dynein intermediate chain at 61B),1,124,101,,,inactive
CG8500,1,143,77.8,,,inactive
Dsk (Drosulfakinin),1,120,155,,,inactive
Galphaf (G protein alpha subunit f),1,87.5,161,,,inactive
Reps (RALBP1 associated Eps domain containing),1,186,169,,,inactive
